Results published in PubChem BioAssay AID588590 (National Center for Advancing Translational Sciences (NCATS), 2011).
Hit rate of the full screen: of about 390,000 compounds, about 4,000 (1%) were called active. Inconclusive results, whose numbers are uncertain, are shown with a selection of clear calls. Calls follow the shape of the dose curve; as a rule, active = well fitted inhibition curve with a large enough effect; inconclusive = small, poorly fitted or top-dose-only effect, or another doubt; inactive = no such curve, though single readings can be large or run the other way. A potency beside an inconclusive call is a rough fit, not a confirmed value.

Sequences of proteins named here, by UniProt entry; tags and fusion partners are left off. A change or cut given only in a name is not applied to a line headed by its entry.
UniProt Q9UNA4: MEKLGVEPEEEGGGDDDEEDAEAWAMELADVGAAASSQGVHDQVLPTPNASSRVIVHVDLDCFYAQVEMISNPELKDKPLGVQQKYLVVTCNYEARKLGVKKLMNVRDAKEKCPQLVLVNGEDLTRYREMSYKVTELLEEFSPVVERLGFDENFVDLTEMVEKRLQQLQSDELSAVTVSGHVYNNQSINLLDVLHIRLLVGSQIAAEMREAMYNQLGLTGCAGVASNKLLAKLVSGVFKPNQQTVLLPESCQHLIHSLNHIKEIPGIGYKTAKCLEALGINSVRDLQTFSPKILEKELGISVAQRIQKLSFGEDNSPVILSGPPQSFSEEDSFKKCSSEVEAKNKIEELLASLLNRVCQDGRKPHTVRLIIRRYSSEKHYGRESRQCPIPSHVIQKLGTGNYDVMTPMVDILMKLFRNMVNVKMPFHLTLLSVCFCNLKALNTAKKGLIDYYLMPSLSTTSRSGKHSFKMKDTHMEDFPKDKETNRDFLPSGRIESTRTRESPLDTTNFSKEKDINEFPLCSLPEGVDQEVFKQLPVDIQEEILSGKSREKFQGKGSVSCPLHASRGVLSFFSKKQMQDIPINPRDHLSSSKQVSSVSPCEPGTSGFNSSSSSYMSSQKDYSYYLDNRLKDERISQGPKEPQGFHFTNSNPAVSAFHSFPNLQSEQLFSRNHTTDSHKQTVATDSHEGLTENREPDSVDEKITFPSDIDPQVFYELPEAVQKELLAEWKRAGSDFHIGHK

Molecular target: DNA polymerase iota (Homo sapiens) (UniProt Q9UNA4)
Test: qHTS for Inhibitors of Polymerase Iota
Conditions: Pol iota fluorescent replication assay, 10 min; series mostly up to 115 µM
Summary of the method: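 Pol iota at 10 nM preincubated 15 min with compounds at room temperature; reaction started with fluorescent substrate, 50 nM final. Fluorescence read kinetically at 0 and 10 min; buffer-only wells as negative control.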
Potency is read from the fitted curve at half-maximal effect.

Row | Structure (SMILES) | Potency
1 | CCCCn1c(SCC(=O)N2CCCCC2)nc2cc(S(N)(=O)=O)ccc21 | inconclusive: 89.1 µM [inhibitor, partial curve, poor fit]
2 | OCCN1CCN(C(=S)c2ccc(Cl)c(Cl)c2)CC1 | inconclusive: 10 µM [inhibitor, partial curve, poor fit]
3 | Cc1ccc(S(=O)(=O)Nc2cccc(-c3ccc(N4CCCCC4)nn3)c2)s1 | inconclusive: 100 µM [inhibitor, single point]
4 | CCc1nnc(NS(=O)(=O)c2ccc(N3C(=O)C4CC=C(Cl)CC4C3=O)cc2)s1 (centres undefined) | inconclusive: 15.8 µM [inhibitor, full curve, poor fit]
5 | N=c1c(C(=O)NCc2ccc(F)cc2)cc2c(=O)n3ccccc3nc2n1Cc1ccco1 | active: 17.8 µM
6 | COc1ccc(N2CCN(C(=O)c3cc4cc5ccc(Cl)cc5nc4o3)CC2)cc1 | inconclusive: 89.1 µM [inhibitor, single point]
7 | O=C(CSc1nnnn1-c1cccnc1)Nc1ccc(OCc2ccccc2)cc1 | inconclusive: 70.8 µM [inhibitor, partial curve]
8 | CCOc1ccccc1C1C(C#N)=C(N)SC(N)=C1C#N | inconclusive: 15.8 µM [inhibitor, full curve, poor fit]
9 | COc1ccc(/C=C/C(=O)c2ccc3c(c2)OCO3)cc1OC | inconclusive: 70.8 µM [inhibitor, partial curve, poor fit]
10 | COCCOC(=O)c1sc(=S)n(CCOC)c1N | inconclusive: 20 µM [inhibitor, full curve, poor fit]
11 | O=C(O)c1ccc(-c2ccc(/C=N/Nc3ccc([N+](=O)[O-])cc3)o2)cc1 | inactive
12 | COc1cccc(-c2nc3c(c(C)nn3-c3ccccc3)c3cc(OC)c(OC)cc23)c1 | inactive
13 | CCN(CC)S(=O)(=O)c1cccc(NC(=O)C2SC(=Nc3ccc(C)cc3C)C(C(=O)NC(C)COC)=C2N)c1 (centres undefined) | inconclusive: 39.8 µM [inhibitor, partial curve, poor fit]
14 | CCOc1ccc(CN(C(=O)/C=C/c2ccco2)C2CCS(=O)(=O)C2)cc1 (centres undefined) | inconclusive: 28.2 µM [inhibitor, full curve, poor fit]
15 | CC1Cc2cc(S(=O)(=O)CCC(=O)Nc3ccc(Cl)cc3F)ccc2N1C(=O)C1CC1 (centres undefined) | inactive
16 | Nc1nonc1-c1nc2ccccc2n1CC(=O)N/N=C\c1ccc(-c2ccc(Cl)cc2)o1 | inconclusive: 11.2 µM [inhibitor, partial curve, poor fit]
17 | COc1ccc(-c2c(-c3ccccc3OC)sc3ccccc23)cc1C=O | inconclusive: 10 µM [inhibitor, single point]
18 | Nc1c(N)c2ccccc2oc1=O | inactive
19 | O=C(COC(=O)Cc1ccc(S(=O)(=O)N2CCOCC2)s1)Nc1ccc([N+](=O)[O-])cc1 | inconclusive: 79.4 µM [inhibitor, single point]
20 | O=C(Nc1ccc(S(=O)(=O)N2CCCCC2)cc1)c1ccc(CN2CCOCC2)cc1 | inconclusive: 39.8 µM [inhibitor, partial curve, poor fit]

Copied from the list.
Potency with COc1ccc(/C=C/C(=O)c2ccc3c(c2)OCO3)cc1OC is entered as inconclusive: 70.8 µM [inhibitor, partial curve, poor fit]
Potency with O=C(O)c1ccc(-c2ccc(/C=N/Nc3ccc([N+](=O)[O-])cc3)o2)cc1 is entered as inactive
Potency with Nc1nonc1-c1nc2ccccc2n1CC(=O)N/N=C\c1ccc(-c2ccc(Cl)cc2)o1 is entered as inconclusive: 11.2 µM [inhibitor, partial curve, poor fit]

Additional entries.

Row | Structure (SMILES) | Potency
21 | CNc1c(Cl)cc(C=O)cc1Cl | inactive
22 | COc1ccc(S(=O)(=O)NCc2cccs2)cc1 | inactive
23 | O=[N+]([O-])c1ccc(Sc2ncccn2)c([N+](=O)[O-])c1 | inconclusive: 14.1 µM [inhibitor, full curve, poor fit]
24 | Cc1cccc(-c2noc(-c3ccccc3C(=O)NCC3CCCO3)n2)c1 (centres undefined) | inconclusive: 79.4 µM [inhibitor, partial curve, poor fit]
25 | c1ccc2c(c1)NCC1CCCN21 (centres undefined) | inconclusive: 25.1 µM [inhibitor, partial curve, poor fit]
26 | Cc1cc(N2C(=O)c3ccc(C(=O)Nc4ccc(CC(=O)O)cc4)cc3C2=O)no1 | inconclusive: 79.4 µM [inhibitor, single point]
27 | O=C(N/N=C/c1cccc([N+](=O)[O-])c1)c1cc2c(ccc3ccccc32)o1 | inconclusive: 25.1 µM [inhibitor, single point]
28 | CN(C)c1cc(NC(=O)CN2CCOCC2)c2ccccc2n1 | inconclusive: 10 µM [inhibitor, partial curve, poor fit]
29 | Cc1ccc(OCc2nnc(SCC(=O)CC(=O)Nc3ccccc3)o2)cc1 | inconclusive: 28.2 µM [inhibitor, partial curve]
30 | Cc1cc(C)n2cc(CSc3ncn[nH]3)nc2n1 | inconclusive: 15.8 µM [inhibitor, partial curve, poor fit]
31 | CCOC(=O)C1=C(COc2ccccc2)NC(=O)NC1c1ccc(Br)cc1 (centres undefined) | inconclusive: 56.2 µM [inhibitor, partial curve, poor fit]
32 | COc1cccc(-c2nnn(CC(=O)N3CCC(C)CC3)n2)c1 | inconclusive: 79.4 µM [inhibitor, single point]
33 | CC1NC(=O)NC1CCCCCC(=O)NCCc1ccccc1 (centres undefined) | inconclusive: 39.8 µM [inhibitor, single point]
34 | CC(=O)Nc1ccc(S(=O)(=O)Nc2nc3ccccc3nc2Nc2ccc(N)cc2)cc1 | inconclusive: 63.1 µM [inhibitor, partial curve, poor fit]
35 | O=C(CCCN1C(=O)/C(=C/c2ccco2)SC1=S)Nc1ccccc1 | inconclusive: 56.2 µM [inhibitor, partial curve, poor fit]
36 | COc1ccc(/C=N/NC(=O)c2cc3cc(OC)c(OC)cc3[nH]2)cc1 | inactive
37 | Cc1ccc(S(=O)(=O)N2CCc3cc(C(=O)NCCc4ccccc4)ccc32)cc1 | inconclusive: 79.4 µM [inhibitor, partial curve, poor fit]
38 | Cc1c(-c2cccc(NC(=O)Nc3ccccc3)c2)nc2ncccn12 | inconclusive: 89.1 µM [inhibitor, partial curve, poor fit]
39 | CCCCn1c(N)c(N(CC(C)C)C(=O)c2oc3ccc(OCC)cc3c2C)c(=O)[nH]c1=O | inconclusive: 50.1 µM [inhibitor, partial curve]
